Results deposited as PubChem BioAssay AID1259254 (NCATS, 2017).
Shown is one part, drawn at random, of about 59,000 reagents. About 1,550 of them (2.6%) were called active. 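G2 share is only a proxy for re-replication; each gene was hit by three separate siRNAs, and active genes were retested.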 Reagents against one gene are numbered here. Further read-outs or replicates are left out here. Not stated in the record: the amount of reagent.

Screen: 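Gene knock-downs that lead to re-replication, shown by excess G2 DNA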 (primary screen)
Cells: human HCT116 colorectal cancer cells
Knock-down reagent: single siRNA against human genes
Timing: 3 days
Read-out: 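Imaged Hoechst DNA stain sorts each cell into a cycle phase by DNA amount; per plate, G2 fraction set to 0% for non-targeting and 100% for GMNN siRNA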
Reading the numbers: G2 robust z-score and G2 cells, % of GMNN control: higher = more G2 cells, more excess DNA replication
Call rule: 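An siRNA counts as active if its G2 robust z-score lies at least 5 MADs above the screen median; here such calls match roughly 38% of GMNN control or more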

no.	gene	reagent no.	G2 robust z-score	G2 cells, % of GMNN control	call
1	RNASEH2A (ribonuclease H2 subunit A)	1	-0.563	-0.995	inactive
2	RNASEH2A (ribonuclease H2 subunit A)	2	-1.63	-8.53	inactive
3	RNASEH2A (ribonuclease H2 subunit A)	3	-0.576	-1.08	inactive
4	GFI1 (growth factor independent 1 transcriptional repressor)	1	-0.628	-1.45	inactive
5	GFI1 (growth factor independent 1 transcriptional repressor)	2	-0.0667	2.5	inactive
6	GFI1 (growth factor independent 1 transcriptional repressor)	3	-0.414	0.0526	inactive
7	TMEM140 (transmembrane protein 140)	1	1.07	10.5	inactive
8	TMEM140 (transmembrane protein 140)	2	-0.757	-2.36	inactive
9	TMEM140 (transmembrane protein 140)	3	0.721	8.04	inactive
10	LYPD2 (LY6/PLAUR domain containing 2)	1	1.33	12.3	inactive
11	LYPD2 (LY6/PLAUR domain containing 2)	2	-0.343	0.557	inactive
12	LYPD2 (LY6/PLAUR domain containing 2)	3	-1.34	-6.48	inactive
13	RNF213 (ring finger protein 213)	1	-0.716	-2.07	inactive
14	RNF213 (ring finger protein 213)	2	-0.524	-0.718	inactive
15	RNF213 (ring finger protein 213)	3	-0.393	0.205	inactive
16	RNF213 (ring finger protein 213)	4	1.1	10.7	inactive
17	RNF213 (ring finger protein 213)	5	2.92	23.5	inactive
18	RNF213 (ring finger protein 213)	6	0.613	7.28	inactive

Entries listed so far whose gene name starts with L or l:
gene	reagent no.	G2 robust z-score	G2 cells, % of GMNN control	call
LYPD2 (LY6/PLAUR domain containing 2)	1	1.33	12.3	inactive
LYPD2 (LY6/PLAUR domain containing 2)	2	-0.343	0.557	inactive
LYPD2 (LY6/PLAUR domain containing 2)	3	-1.34	-6.48	inactive

The results go on.
no.	gene	reagent no.	G2 robust z-score	G2 cells, % of GMNN control	call
19	RNF145 (ring finger protein 145)	1	-0.58	-1.12	inactive
20	RNF145 (ring finger protein 145)	2	0.637	7.45	inactive
21	RNF145 (ring finger protein 145)	3	5.28	40.1	active
22	CHD4 (chromodomain helicase DNA binding protein 4)	1	0.0511	3.33	inactive
23	CHD4 (chromodomain helicase DNA binding protein 4)	2	-0.991	-4.01	inactive
24	CHD4 (chromodomain helicase DNA binding protein 4)	3	0.238	4.64	inactive
25	NOP14 (NOP14 nucleolar protein)	1	0.66	7.61	inactive
26	NOP14 (NOP14 nucleolar protein)	2	1.56	13.9	inactive
27	NOP14 (NOP14 nucleolar protein)	3	1.84	15.9	inactive
28	C11orf65 (chromosome 11 open reading frame 65)	1	-0.509	-0.612	inactive
29	C11orf65 (chromosome 11 open reading frame 65)	2	6.08	45.7	active
30	C11orf65 (chromosome 11 open reading frame 65)	3	0.706	7.93	inactive
